These results are taken from PMC8514745.

No constants are given. Whether binding was seen depends on the method and setting. Some binding calls cover weakened binding; strength is not graded here.

The target in this experiment is Tf receptor 1 (TfR1) on extracellular vesicles (mouse (endogenous in plasma extracellular vesicles)) (UniProt Q62351). The experiment in a line: passive cargo-loading of extracellular vesicles; extracellular vesicles from mouse plasma containing TfR1 loaded with aTf by two passive cargo-loading strategies; only the binder purified.

Take “human apoTransferrin (aTf) (from UniProt P02787 20-698) (ligand)”: the binding result is recorded as “binds”.
